No constants are given. Whether binding was seen depends on the method and setting. In cells and extracts the contact can be indirect. Binding can be weak; no strength is given.
Biological target: PulN with C-terminal Flag tag (Klebsiella pneumoniae HS11286)
Assay: pull-down; two-step affinity chromatography from DDM-solubilised membranes of E. coli co-expressing PulE-StrepII with PulL, PulM and PulN-Flag: StrepTrap, then Flag resin; no glutaraldehyde

| Substance | binding |
| --- | --- |
| PulL (from UniProt A0A0H3GNF4) | binds weakly |
| PulM (from UniProt A0A0H3GMR9) | binds weakly |
